Test results reported in PMC12040169 (PLOS Biology, 2025).
Some of the results follow.

Test system: T1, CTL2-GFP (C. trachomatis L2/434/Bu, GFP-expressing)
T1 construct: L2/434/Bu, GFP-expressing
Parameters: species or system HeLa; Intracellular C. trachomatis growth in HeLa cells, bulk GFP fluorescence relative to DMSO
Settings: bulk GFP, single well; 28.5 h, 10 µM; inhibitor

Structure (SMILES)	% of control remaining [%]
CC1CCCCN1C(=O)c1ccc(-n2ccnc2)c(-n2cccc2)c1 (centres unmarked) [CBK284832]	104.758
O=C(O)C(c1c[nH]c2ccccc12)N1CCN(S(=O)(=O)c2ccccc2)CC1 (centres unmarked) [CBK286643]	134.096
O=C(CSc1nc2ccccc2c(=O)n1-c1ccc(F)cc1)Nc1ccc(C(=O)O)cc1 [CBK296140]	143.343
O=C(NC(c1ccc(Cl)cc1)c1ccsc1)C1CCN(CCCN2C(=O)CC3CCCCC3C2=O)CC1 (centres unmarked) [CBK147974]	147.374
Cc1cc2ccccc2n2c(=O)n(Cc3cscn3)nc12 [CBK282381]	111.236
COc1cc2c(cc1OC)CN(C(=O)c1ccc3[nH]cnc3c1)CC2 [CBK295331]	109.802
O=S(=O)(c1c(F)cccc1F)N1CCN(Cc2ccc3c(c2)OCO3)CC1 [CBK074600]	102.156
COc1ccc(S(=O)(=O)n2ccn(C(c3ccccc3)c3ccccc3)c2=O)cc1OC [CBK106621]	105.056
CC(=O)N1CCc2cc(Nc3ncnc4c3cnn4CCC#N)ccc21 [CBK305950]	103.356
COC(=O)c1cc(Br)c(NC(=O)c2cccs2)cc1OC [CBK066842]	164.753
CNC(=O)C1(Cc2ccccc2-c2cccs2)CCN(C(=O)Cc2ccc(C)cc2)CC1 [CBK285697]	135.1
Cc1ccc(C)c(NC(=O)CC2C(=O)N(c3ccccc3)C(=S)N2Cc2ccco2)c1 (centres unmarked) [CBK267119]	141.946
CSc1ncc(C(=O)N2CCN3CCN(C)CC3C2)c(=O)[nH]1 (centres unmarked) [CBK307677]	101.613
COc1ccc(C(C)C)cc1-c1nccnc1N1CCCN(C)CC1 [CBK036677]	109.679
Cc1ccc(NC(=O)COc2ccc(/C=C\c3onc(C)c3[N+](=O)[O-])cc2)cc1 [CBK268928]	116.783
Cc1ccc2[nH]c(C)c(CC(=O)N(C)CCN(C)C)c2c1 [CBK282674]	101.328
O=C(CN(C1CCCCC1)S(=O)(=O)c1ccc(Br)cc1)NCc1ccccn1 [CBK264846]	117.001
O=S(=O)(Cc1ccccc1Cl)NCCN1CCOCC1 [CBK269171]	157.766
O=C(c1cc(F)cc(F)c1)N1CCC(n2cnc3cccnc32)CC1 [CBK283636]	113.032
CS(=O)(=O)Nc1ccc(C(=O)Nc2ccc(S(=O)(=O)N3CCCC3)cc2)cc1 [CBK268592]	113.125
CCC(NC1CCc2nc(COC)nn2C1)C1CCC1 (centres unmarked) [CBK304739]	121.996
Cc1cccc(C)c1OCc1nnc(SCC(=O)c2ccc(F)cc2)n1C [CBK269715]	122.962
Cc1cc(C)nc(SCc2nc3ccc([N+](=O)[O-])cc3[nH]2)n1 [CBK264634]	100
COc1ccc(C2=NN(c3ccc(C(=O)O)cc3)C(c3ccc(OC)c(OC)c3)C2)cc1 (centres unmarked) [CBK296134]	123.973
OCCN1CCN(CC(O)COc2ccc(Cl)cc2Cl)CC1 (centres unmarked) [CBK278198C]	100
Cc1ccc(NC(=O)Cn2c(=O)cc(O)c3ccccc32)cc1 [CBK291116]	120.74

Structure (SMILES)	% of control remaining [%]
Cc1cc2c(cc1C)N(C(=O)CSc1nc3ccccc3[nH]1)C(C)(C)CC2C (centres unmarked) [CBK264144]	109.031
Cc1cc(C)cc(/N=C2\NC(=O)C(CC(=O)O)S2)c1 (centres unmarked) [CBK286878]	125.032
FC(F)(F)c1cccc(Oc2nnnn2-c2ccccc2)c1 [CBK002798]	108.263
CN1CCN(c2ccc(NC(=O)c3cc4oc(-c5ccccc5)nc4c(=O)n3C)cc2)CC1 [CBK200425]	140.608
COC(=O)CCc1ccc(S(=O)(=O)N2CCCN(Cc3ccc4c(c3)OCO4)CC2)cc1 [CBK063130]	92.2257
O=S(=O)(Nc1nnc(C(F)(F)F)s1)c1csc2ccccc12 [CBK062009]	112.068
Cc1nn(CCNC(=O)C2CC3C=CC2C32CC2)c(C)c1Cl (centres unmarked) [CBK281429]	120.545
O=C(Nc1ccc(N2CCNCC2)nc1)c1cccnc1 [CBK029439T]	109.78
O=C(Nc1ccc2c(c1)OCO2)c1nccnc1-c1ccc(COc2ccccc2)cc1 [CBK050834]	100.351
COc1cccc(CCN2N=C(C)CC2=O)c1OC [CBK067766]	118.953
Cn1ncc2c(=O)[nH]c(N3CCN(c4cc(C#N)ccn4)CC3)nc21 [CBK304924]	127.804
COc1cc(CNc2cncc(-c3cccc(C(=O)NCCO)c3)n2)cc(OC)c1OC [CBK065421]	128.743
O=C(CC1NCCNC1=O)Nc1cccc(Cl)c1 (centres unmarked) [CBK266454]	89.3427
O=C(O)C1C2C=CC(C2)C1C(=O)NCc1ccco1 (centres unmarked) [CBK265453]	120.255
Cc1ccc(-n2cc(-c3ccccc3)[nH]c2=O)cc1 [CBK288103]	140.693
Cc1nc2ccccc2nc1SCc1nc(N)nc(N2CCCCC2)n1 [CBK270218]	134.704
Cn1nccc1C(=O)N[C@H]1CCC[C@@H](c2c[nH]c3ccccc23)C1 [CBK285073]	123.201
CC(C)Nc1nccnc1Sc1ccccc1O [CBK089492]	115.192
O=C(Nc1ccc2n(c1=O)C[C@@H]1CNC[C@H]2C1)c1ccncc1 [CBK289177]	97.963
CC(O)CNC(=O)c1cn2cc(-c3cccs3)n(CC3CC3)c(=O)c2n1 (centres unmarked) [CBK307117]	137.286
O=C(c1cc(-c2cccc(Br)c2)nc2ccccc12)N1CCN(C/C=C/c2ccccc2)CC1 [CBK262633]	96.58
CS(=O)(=O)Nc1nccnc1OC1CCN(CCCn2c(=O)[nH]c3ccccc32)CC1 [CBK084277]	117.94
CC(CCO)CNS(=O)(=O)c1ccc(N2CCCC2=O)cc1 (centres unmarked) [CBK306358]	89.1359
Cc1ccc(C2(CN3CCC(NC(=O)c4cc[nH]n4)CC3)CC2)cc1 [CBK285360]	123.043
NS(=O)(=O)c1ccc(CNC(=O)c2cc(-c3ccncc3)nc3ccc(Cl)cc23)cc1 [CBK267770]	94.9862
C=CCn1c(-c2sc(NC(=O)CN3C(=C)c4ccccc4C3=O)nc2C)n[nH]c1=S [CBK297909]	112.911

Structure (SMILES)	% of control remaining [%]
Cc1ccc2[nH]cc(CCN3CCC(C(=O)NC(=O)Nc4ccccc4F)CC3)c2c1 [CBK034974]	102.169
COc1cncc(-c2cccc(N3CCN(CCN(C)C)CC3)n2)c1 [CBK037024]	118.502
CCCNC(=O)C(C)Sc1nc2ccsc2c(=O)n1CC (centres unmarked) [CBK296745]	127.485
Cc1ccn2cc(-c3ccc4c(c3)CC(C)N4S(C)(=O)=O)cc2c1 (centres unmarked) [CBK285253]	120.143
CS(=O)(=O)c1ccc(-c2ccc3c(c2)OCCN(C2CCN(C(=O)CC(F)(F)F)CC2)C3)cc1 [CBK169260]	112.16
Cc1ccc(S(=O)(=O)Nc2nnc(C)s2)cc1 [CBK045486]	127.947
O=C(CN1C(=O)[C@@H]2CCCN2C(=O)c2ccccc21)N1CCCC1 [CBK282434]	110.146
CN1CCCN(c2cncc(-c3cccs3)n2)CC1 [CBK065542]	91.0486
O=C(O)C1C2C=CC3(CN(C4CCCCC4)C(=O)C13)O2 (centres unmarked) [CBK287248]	115.699
CCS(=O)(=O)c1ccc2oc([C@H]3CCN(C(=O)C4CCCCC4)C3)nc2c1 [CBK289381]	157.258
Cc1noc(C)c1C(=O)N1CCCCCC1c1cnn(C)c1 (centres unmarked) [CBK284974]	132.603
Sc1nnc(-c2ccncc2)n1C1CCCCC1 [CBK288421]	103.697
CC(=O)c1cnc2cc(-c3ccc(Cl)cc3)nn2c1C [CBK051484]	136.233
CCc1cc(Br)ccc1S(=O)(=O)Nc1cccc2cccnc12 [CBK045012]	97.9089
CCS(=O)(=O)Nc1cc(N2CCNCC2)c2occc2c1 [CBK059429C]	116.62
CCOc1ccc(/N=c2\scc(-c3ccc(OC)c(Br)c3)n2CCc2ccccc2)cc1 [CBK263654B]	100
Cc1ccc(-c2nnc(C3CCCN(C(=O)C(C)C)C3)o2)s1 (centres unmarked) [CBK283058]	147.677
Cc1ccc(S(=O)(=O)c2nc(NCCN3CCOCC3)sc2Cl)cc1 [CBK269615]	142.606
N#Cc1c[nH]nc1NS(=O)(=O)c1ccc(F)cc1 [CBK051018]	118.031
Cn1nnnc1SCC(=O)Nc1cccc2nsnc12 [CBK268973]	111.568
c1nc(Nc2ccc3[nH]ccc3c2)cc(-c2ccc3c(c2)OCO3)n1 [CBK037761]	92.9789
O=C(Cc1csc(NS(=O)(=O)c2ccc(-c3cccc([N+](=O)[O-])c3)cc2)n1)N1CCOCC1 [CBK200032]	100.019
COc1ccc(CCNC(=O)N(CCC#N)C2CCCCC2)cc1OC [CBK156363]	104.276
O=C(NCC1CCCN1)c1cc(C(=O)c2ccc(Cl)cc2Cl)c[nH]1 (centres unmarked) [CBK115923C]	101.238
O=C(O)c1ccc2c(c1)C(=O)N(c1ccc(C3(c4ccc(N5C(=O)c6ccc(C(=O)O)cc6C5=O)cc4)c4ccccc4-c4ccccc43)cc1)C2=O [CBK261195]	113.43

Random excerpt: 4 records from the list.
Structure (SMILES)	% of control remaining [%]
CN1CCCN(c2cncc(-c3cccs3)n2)CC1 [CBK065542]	91.0486
Cc1ccc2[nH]cc(CCN3CCC(C(=O)NC(=O)Nc4ccccc4F)CC3)c2c1 [CBK034974]	102.169
CCc1cc(Br)ccc1S(=O)(=O)Nc1cccc2cccnc12 [CBK045012]	97.9089
COc1cncc(-c2cccc(N3CCN(CCN(C)C)CC3)n2)c1 [CBK037024]	118.502
